Publication PMC7596047
These are yes or no findings as the source states them, for the method shown. Binding seen in cells or lysates may run through a third protein. Some results given as binding are weak or reduced against the parent protein; the word gives no strength.

The chains behind the UniProt entries cited, without tags or fusion partners.
UniProt Q16666: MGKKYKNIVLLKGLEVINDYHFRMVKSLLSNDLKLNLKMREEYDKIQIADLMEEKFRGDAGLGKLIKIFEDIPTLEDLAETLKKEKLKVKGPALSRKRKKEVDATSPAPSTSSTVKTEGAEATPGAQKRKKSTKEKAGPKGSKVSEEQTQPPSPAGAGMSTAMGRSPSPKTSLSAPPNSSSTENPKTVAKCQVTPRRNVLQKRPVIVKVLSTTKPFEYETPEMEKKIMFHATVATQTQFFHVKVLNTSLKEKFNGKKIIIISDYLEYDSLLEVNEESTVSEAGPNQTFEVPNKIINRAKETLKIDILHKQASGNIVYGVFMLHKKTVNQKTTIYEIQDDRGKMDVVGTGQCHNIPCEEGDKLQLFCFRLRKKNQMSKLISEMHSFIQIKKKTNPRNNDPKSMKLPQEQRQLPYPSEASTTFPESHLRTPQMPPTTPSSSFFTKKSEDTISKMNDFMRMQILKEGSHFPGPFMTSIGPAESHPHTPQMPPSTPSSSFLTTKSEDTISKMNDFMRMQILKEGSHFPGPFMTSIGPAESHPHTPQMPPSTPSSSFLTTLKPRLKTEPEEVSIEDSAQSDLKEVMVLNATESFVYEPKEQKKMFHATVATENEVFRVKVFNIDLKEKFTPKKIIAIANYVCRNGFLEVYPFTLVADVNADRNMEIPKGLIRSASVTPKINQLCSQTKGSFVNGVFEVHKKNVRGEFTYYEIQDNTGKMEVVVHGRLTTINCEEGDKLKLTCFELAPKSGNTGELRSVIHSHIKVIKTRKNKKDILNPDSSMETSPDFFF

Tests used:
[1] = biological target: gamma-interferon-inducible protein 16 (IFI16) (human (endogenous in H9 hESCs and cells differentiated from them)) (UniProt Q16666); test: co-IP; lysates (Pierce IP Lysis Buffer) of undifferentiated H9 hESCs; precipitated with p53 or IFI16 antibodies at 4 °C overnight, protein A/G magnetic beads; immunoblot
[2] = biological target: gamma-interferon-inducible protein 16 (IFI16) (human (endogenous in H9 hESCs and cells differentiated from them)) (UniProt Q16666); test: co-IP; lysates (Pierce IP Lysis Buffer) of differentiated trilineage cells (endoderm, mesoderm, ectoderm) on Day 2; precipitated with p53 or IFI16 antibodies at 4 °C overnight, protein A/G magnetic beads; immunoblot
[3] = biological target: p53 (human (endogenous in H9 hESCs and cells differentiated from them)) (UniProt P04637); test: proximity ligation; Duolink in situ PLA with anti-IFI16 and anti-p53 on fixed undifferentiated H9 hESCs; confocal microscopy
[4] = biological target: p53 (human (endogenous in H9 hESCs and cells differentiated from them)) (UniProt P04637); test: proximity ligation; Duolink in situ PLA with anti-IFI16 and anti-p53 on fixed differentiated trilineage cells on Day 2; confocal microscopy
[5] = biological target: p53 (human (endogenous in H9 hESCs and cells differentiated from them)) (UniProt P04637); test: co-IP; lysates (Pierce IP Lysis Buffer) of undifferentiated H9 hESCs; precipitated with p53 or IFI16 antibodies at 4 °C overnight, protein A/G magnetic beads; immunoblot
[6] = biological target: p53 (human (endogenous in H9 hESCs and cells differentiated from them)) (UniProt P04637); test: co-IP; lysates (Pierce IP Lysis Buffer) of differentiated trilineage cells (endoderm, mesoderm, ectoderm) on Day 2; precipitated with p53 or IFI16 antibodies at 4 °C overnight, protein A/G magnetic beads; immunoblot

binding [1] | binding [2] | binding [4] | binding [5] | binding [6] | Substance | binding [3]
binds weakly | binds | – | – | – | p53 (from UniProt P04637 1-393) | –
– | – | binds | binds weakly | binds | gamma-interferon-inducible protein 16 (IFI16) (from UniProt Q16666 1-785) | no binding (condition: in undifferentiated H9 cells)
